Test results as given in the supplement of paper PMC12067093, “Discovery and optimisation of a covalent ligand for TRIM25 and its application to targeted protein ubiquitination” (Chemical Science, 2025).
The other results are listed elsewhere or left out.

By UniProt entry, the sequences of proteins in these tests, tags left out. Where a name states a change or a piece, a line headed by the entry shows the natural chain unless it says otherwise.
UniProt Q8N5Y2: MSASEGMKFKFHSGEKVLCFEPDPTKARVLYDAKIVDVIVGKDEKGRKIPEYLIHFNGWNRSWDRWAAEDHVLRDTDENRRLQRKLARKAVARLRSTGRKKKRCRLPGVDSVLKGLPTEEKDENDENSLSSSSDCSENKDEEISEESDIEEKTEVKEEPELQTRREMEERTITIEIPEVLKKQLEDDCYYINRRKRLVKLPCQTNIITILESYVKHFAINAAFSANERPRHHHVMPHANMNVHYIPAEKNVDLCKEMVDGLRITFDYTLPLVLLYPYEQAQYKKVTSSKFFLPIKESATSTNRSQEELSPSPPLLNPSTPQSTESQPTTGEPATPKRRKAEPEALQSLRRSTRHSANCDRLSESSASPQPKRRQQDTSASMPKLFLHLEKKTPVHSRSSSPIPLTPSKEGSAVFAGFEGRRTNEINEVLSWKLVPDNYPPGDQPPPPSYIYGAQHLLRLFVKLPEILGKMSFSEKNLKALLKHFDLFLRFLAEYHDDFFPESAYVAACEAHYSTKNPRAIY
UniProt Q9BQG0: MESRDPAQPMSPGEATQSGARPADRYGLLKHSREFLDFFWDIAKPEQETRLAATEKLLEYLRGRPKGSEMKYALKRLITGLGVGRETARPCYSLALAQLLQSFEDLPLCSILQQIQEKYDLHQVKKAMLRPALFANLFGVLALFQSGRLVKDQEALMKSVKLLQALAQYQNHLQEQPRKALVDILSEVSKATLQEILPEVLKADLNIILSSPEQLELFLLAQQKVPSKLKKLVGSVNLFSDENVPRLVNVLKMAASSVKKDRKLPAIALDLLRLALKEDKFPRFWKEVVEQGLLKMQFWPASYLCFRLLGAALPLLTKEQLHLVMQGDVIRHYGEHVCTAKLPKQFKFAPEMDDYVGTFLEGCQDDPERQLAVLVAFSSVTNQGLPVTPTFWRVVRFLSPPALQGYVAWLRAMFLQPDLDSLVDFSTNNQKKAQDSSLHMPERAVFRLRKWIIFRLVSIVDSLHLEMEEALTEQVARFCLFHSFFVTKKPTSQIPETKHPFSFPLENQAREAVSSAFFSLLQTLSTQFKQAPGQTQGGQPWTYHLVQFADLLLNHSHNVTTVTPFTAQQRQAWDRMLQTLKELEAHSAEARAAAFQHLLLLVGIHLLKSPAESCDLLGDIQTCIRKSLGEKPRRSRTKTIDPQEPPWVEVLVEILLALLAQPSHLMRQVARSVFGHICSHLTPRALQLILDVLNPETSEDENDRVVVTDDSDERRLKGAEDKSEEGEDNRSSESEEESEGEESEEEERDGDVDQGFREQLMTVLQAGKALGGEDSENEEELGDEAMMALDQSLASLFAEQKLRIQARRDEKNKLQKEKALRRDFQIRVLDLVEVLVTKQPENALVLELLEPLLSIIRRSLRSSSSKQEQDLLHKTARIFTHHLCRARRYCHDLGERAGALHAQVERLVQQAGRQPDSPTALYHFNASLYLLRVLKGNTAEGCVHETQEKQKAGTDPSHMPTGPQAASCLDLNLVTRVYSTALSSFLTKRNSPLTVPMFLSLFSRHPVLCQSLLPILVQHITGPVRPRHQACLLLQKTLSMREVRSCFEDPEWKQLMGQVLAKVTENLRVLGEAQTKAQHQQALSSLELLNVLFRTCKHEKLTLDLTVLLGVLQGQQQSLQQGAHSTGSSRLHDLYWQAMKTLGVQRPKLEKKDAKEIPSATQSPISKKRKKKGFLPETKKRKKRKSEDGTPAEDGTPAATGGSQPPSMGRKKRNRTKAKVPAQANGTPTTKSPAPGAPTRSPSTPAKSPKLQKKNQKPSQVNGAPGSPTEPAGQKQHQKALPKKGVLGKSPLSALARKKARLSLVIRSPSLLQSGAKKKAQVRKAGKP
UniProt P35579, whole entry, looked up: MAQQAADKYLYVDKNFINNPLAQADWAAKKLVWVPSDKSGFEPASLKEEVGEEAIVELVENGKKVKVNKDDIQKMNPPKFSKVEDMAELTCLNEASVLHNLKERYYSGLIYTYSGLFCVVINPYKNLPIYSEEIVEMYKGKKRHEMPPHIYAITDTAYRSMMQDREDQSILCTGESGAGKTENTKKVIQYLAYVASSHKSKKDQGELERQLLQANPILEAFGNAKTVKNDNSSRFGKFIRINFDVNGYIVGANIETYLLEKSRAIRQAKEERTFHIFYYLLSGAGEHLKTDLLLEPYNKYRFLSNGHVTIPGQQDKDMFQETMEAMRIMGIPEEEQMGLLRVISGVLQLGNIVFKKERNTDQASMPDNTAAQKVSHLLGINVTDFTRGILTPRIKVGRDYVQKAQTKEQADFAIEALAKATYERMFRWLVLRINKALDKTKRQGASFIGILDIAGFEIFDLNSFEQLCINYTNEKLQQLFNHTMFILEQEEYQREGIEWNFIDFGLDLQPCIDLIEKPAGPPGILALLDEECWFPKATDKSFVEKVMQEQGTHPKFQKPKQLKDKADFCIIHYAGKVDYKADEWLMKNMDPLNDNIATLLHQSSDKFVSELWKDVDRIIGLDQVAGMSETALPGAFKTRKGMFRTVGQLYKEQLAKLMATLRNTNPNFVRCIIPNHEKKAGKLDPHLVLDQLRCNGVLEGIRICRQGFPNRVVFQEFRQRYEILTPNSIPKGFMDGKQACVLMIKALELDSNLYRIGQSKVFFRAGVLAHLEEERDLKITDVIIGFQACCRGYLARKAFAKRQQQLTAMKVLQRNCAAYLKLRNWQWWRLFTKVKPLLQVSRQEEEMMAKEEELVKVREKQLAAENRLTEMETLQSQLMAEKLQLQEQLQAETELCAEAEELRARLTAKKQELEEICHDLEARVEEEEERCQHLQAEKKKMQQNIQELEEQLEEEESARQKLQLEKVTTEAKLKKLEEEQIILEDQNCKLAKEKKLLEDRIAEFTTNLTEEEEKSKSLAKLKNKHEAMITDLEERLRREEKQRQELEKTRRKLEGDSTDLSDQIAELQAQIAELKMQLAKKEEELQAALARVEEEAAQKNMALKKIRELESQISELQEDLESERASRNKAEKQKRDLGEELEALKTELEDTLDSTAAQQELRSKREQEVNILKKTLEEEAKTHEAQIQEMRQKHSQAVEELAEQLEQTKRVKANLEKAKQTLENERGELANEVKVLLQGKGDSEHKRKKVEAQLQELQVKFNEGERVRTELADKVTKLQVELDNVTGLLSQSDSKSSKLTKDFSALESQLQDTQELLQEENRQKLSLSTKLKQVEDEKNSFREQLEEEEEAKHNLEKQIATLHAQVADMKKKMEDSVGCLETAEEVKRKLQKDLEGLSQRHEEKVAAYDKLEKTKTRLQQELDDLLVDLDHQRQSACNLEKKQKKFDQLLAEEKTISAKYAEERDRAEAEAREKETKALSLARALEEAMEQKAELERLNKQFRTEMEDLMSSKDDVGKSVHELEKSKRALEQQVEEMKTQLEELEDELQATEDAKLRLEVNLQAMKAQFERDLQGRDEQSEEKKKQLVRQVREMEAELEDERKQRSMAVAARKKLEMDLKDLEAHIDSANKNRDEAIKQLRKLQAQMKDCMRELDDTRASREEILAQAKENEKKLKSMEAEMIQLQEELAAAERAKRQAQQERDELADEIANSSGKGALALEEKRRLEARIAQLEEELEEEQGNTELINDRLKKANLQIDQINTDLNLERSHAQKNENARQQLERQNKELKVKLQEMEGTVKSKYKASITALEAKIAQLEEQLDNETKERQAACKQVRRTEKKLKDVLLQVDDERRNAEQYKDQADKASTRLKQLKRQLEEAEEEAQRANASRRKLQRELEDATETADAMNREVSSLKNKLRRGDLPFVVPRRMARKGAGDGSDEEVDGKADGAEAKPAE
UniProt O75570: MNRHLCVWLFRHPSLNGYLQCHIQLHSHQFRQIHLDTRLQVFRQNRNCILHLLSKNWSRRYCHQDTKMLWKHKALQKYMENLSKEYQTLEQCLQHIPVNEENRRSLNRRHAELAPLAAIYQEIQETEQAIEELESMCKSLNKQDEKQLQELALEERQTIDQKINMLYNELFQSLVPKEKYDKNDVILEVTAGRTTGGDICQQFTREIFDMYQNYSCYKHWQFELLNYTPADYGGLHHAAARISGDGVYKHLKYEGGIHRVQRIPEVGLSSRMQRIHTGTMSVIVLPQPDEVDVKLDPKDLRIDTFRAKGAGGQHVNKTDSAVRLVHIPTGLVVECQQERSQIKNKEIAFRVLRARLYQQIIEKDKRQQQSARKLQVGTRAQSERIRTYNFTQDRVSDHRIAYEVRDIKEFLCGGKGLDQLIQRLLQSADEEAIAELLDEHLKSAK
UniProt P52701: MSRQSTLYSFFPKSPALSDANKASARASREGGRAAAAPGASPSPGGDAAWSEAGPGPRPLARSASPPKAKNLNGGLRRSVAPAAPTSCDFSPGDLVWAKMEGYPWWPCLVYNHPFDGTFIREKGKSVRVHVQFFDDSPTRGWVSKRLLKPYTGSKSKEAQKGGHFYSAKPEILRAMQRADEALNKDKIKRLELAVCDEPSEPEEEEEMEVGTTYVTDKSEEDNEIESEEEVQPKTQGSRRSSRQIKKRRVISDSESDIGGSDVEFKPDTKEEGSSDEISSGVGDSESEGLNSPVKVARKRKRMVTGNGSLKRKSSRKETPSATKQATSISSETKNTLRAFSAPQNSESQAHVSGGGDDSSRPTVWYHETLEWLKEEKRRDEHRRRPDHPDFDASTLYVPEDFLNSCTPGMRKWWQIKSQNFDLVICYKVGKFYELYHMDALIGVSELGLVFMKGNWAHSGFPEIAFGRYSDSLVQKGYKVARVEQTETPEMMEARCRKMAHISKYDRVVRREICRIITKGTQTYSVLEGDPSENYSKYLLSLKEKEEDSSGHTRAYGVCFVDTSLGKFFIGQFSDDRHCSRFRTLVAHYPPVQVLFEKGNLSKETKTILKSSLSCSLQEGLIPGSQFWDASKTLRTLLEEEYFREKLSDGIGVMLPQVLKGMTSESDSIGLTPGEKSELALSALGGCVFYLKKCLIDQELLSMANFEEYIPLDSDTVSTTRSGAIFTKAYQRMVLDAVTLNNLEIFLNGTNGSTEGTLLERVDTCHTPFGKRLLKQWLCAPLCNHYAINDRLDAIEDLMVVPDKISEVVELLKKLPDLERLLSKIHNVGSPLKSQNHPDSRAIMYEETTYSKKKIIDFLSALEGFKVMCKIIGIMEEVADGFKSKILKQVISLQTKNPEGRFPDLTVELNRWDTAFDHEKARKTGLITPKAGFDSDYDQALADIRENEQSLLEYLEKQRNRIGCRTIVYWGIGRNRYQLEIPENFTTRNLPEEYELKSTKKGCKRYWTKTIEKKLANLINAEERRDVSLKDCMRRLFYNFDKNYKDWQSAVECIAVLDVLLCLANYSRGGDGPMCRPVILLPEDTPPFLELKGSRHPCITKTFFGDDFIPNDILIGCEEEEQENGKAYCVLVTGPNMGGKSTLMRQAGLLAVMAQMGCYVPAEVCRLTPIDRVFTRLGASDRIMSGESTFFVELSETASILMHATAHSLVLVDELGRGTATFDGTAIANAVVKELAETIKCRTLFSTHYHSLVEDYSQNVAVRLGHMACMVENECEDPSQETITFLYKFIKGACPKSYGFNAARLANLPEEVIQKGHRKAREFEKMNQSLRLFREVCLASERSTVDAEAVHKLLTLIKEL
UniProt P11586, whole entry, looked up: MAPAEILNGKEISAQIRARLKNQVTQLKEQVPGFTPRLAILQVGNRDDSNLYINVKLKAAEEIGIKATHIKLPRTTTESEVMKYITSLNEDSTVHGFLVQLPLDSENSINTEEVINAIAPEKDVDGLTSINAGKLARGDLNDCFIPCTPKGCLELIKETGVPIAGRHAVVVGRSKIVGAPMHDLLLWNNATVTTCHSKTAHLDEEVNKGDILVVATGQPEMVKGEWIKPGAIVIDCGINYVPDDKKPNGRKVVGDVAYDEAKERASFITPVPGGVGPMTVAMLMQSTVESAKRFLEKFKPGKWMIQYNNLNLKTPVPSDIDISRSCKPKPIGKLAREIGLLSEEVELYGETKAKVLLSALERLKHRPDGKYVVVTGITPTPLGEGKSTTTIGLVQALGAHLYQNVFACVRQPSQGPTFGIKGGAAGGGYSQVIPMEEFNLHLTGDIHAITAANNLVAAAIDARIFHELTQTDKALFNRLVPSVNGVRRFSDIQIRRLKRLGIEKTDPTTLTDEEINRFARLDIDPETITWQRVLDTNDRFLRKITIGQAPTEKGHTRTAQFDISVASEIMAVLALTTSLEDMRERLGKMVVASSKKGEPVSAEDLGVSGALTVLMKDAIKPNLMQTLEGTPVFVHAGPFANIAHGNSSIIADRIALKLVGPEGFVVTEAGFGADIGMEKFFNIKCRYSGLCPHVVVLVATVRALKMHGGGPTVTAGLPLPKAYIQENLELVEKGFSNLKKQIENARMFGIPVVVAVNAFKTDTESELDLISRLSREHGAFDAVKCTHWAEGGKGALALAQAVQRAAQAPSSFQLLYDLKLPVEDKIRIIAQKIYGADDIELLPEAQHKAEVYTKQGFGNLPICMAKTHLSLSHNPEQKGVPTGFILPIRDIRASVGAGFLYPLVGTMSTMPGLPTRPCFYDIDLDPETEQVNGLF

These targets were tested with Cc1cc(ccc1-c1ccccc1)C(=O)N1CCCN(CC1)C(=O)CCl [compound 10] (assay: probe-labelled cysteine peptide fold change vs DMSO (competition) (log2 fold change); higher = less target engagement (more negative = stronger competition)). Details: 10 µM; THP-1; incubation time: 4 h.
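Note: competitive profiling in live THP-1 cells: cysteine peptides tagged with an iodoacetamide desthiobiotin (IA-DTB) probe, intensity after compound treatment relative to DMSO-treated cells.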

Target	probe-labelled cysteine peptide fold change
MTMR6_Q9Y217_203_CSQPLSGFSAR (UniProt Q9Y217)	0.233
MYCBP2_O75592_4233_LWLALASLCVLDQDHVDR (UniProt O75592)	-0.434
MSL3_Q8N5Y2_358_HSANCDR (UniProt Q8N5Y2)	-0.00163
MYCBP2_O75592_4356_EHTGKPTTSSSEACR (UniProt O75592)	-0.0507

Same assay, conditions: 50 µM; THP-1; incubation time: 4 h

Target	probe-labelled cysteine peptide fold change
MYBBP1A_Q9BQG0_884_IFTHHLCR (UniProt Q9BQG0)	0.0211
MTFR2_Q6P444_50_MLPLEPCR (UniProt Q6P444)	-0.0716
MYCBP2_O75592_3824_AVEDLCR (UniProt O75592)	-0.175
MYH9_P35579_740_QACVLMIK (UniProt P35579)	0.103
MRPS24_Q96EL2_103_FMWGTFPGCLADQLVLK (UniProt Q96EL2)	0.0724
MTRF1_O75570_335_LVHIPTGLVVECQQER (UniProt O75570)	-0.305
MYBBP1A_Q9BQG0_1031_HQACLLLQK (UniProt Q9BQG0)	-0.0353
MTHFSD_Q2M296_267_DVTLQGEHQHLPEPGCQQTVPLSVGR (UniProt Q2M296)	-0.305
MYBL2_P10244_147_SCWTEEEDRIICEAHK (UniProt P10244)	-0.335
MSH6_P52701_687_SELALSALGGCVFYLK (UniProt P52701)	0.296
MTHFD1_P11586_143_GDLNDCFIPCTPK (UniProt P11586)	-0.0853
MYCBP2_O75592_4406+4413_NEEHCLPCLHGCDK (UniProt O75592)	-0.699
MYADM_Q96S97_279_SRDVSCSR (UniProt Q96S97)	1.22
MRTO4_Q9UKD2_176_GVVTLLSDYEVCK (UniProt Q9UKD2)	0.0303
MRRF_Q96E11_154_SPQLILVNMASFPECTAAAIK (UniProt Q96E11)	-0.103
MYBBP1A_Q9BQG0_614_SPAESCDLLGDIQTCIR (UniProt Q9BQG0)	0.11
MTREX_P42285_110_VQSVETVEGCTHEVALPAEEDYLPLKPR (UniProt P42285)	-0.193
MTHFD1L_Q6UB35_198_GDAHECFVSPVAK (UniProt Q6UB35)	-0.0537

Target	probe-labelled cysteine peptide fold change
MS4A6A_Q9H2W1_240_MTHDCGYEELLTS (UniProt Q9H2W1)	-0.726
MYH9_P35579_917_KQELEEICHDLEARVEEEEER (UniProt P35579)	-0.451
MTMR10_Q9NXD2_104_NLLLGEHDVPLTCIEQIVTVNDHK (UniProt Q9NXD2)	0.0677
MSH6_P52701_1129_AYCVLVTGPNMGGK (UniProt P52701)	-0.274
MTHFD1_P11586_147_GDLNDCFIPCTPK (UniProt P11586)	-0.266
MYH10_P35580_1011_IAECSSQLAEEEEK (UniProt P35580)	-0.111
MYBBP1A_Q9BQG0_305_MQFWPASYLCFR (UniProt Q9BQG0)	0.914
MTRF1_O75570_200_TTGGDICQQFTR (UniProt O75570)	-0.0835
MTMR6_Q9Y217_214_CLEDEHLLQAISK (UniProt Q9Y217)	-0.217
MTMR1_Q13613_258_INSNYEFCDTYPAIIVVPTSVK (UniProt Q13613)	0.506
MTM1_Q13496_53_EVIYICPFNGPIK (UniProt Q13496)	-0.467
MSH2_P43246_843_HVIECAK (UniProt P43246)	-0.109
MYL6_P60660-2_138_MTEEEVEMLVAGHEDSNGCINYEELVR (UniProt P60660)	0.0451
MYCBP2_O75592_3263_QAHPGCGR (UniProt O75592)	0.00399
MTMR6_Q9Y217_203_CSQPLSGFSAR (UniProt Q9Y217)	-0.4
MYCBP2_O75592_4233_LWLALASLCVLDQDHVDR (UniProt O75592)	-0.331
MSL3_Q8N5Y2_358_HSANCDR (UniProt Q8N5Y2)	-0.184
MYCBP2_O75592_4356_EHTGKPTTSSSEACR (UniProt O75592)	-0.406
